According to patent publication US20180343839A1:
No constants are given. Whether binding was seen depends on the method and setting. For some of these results: Binding seen in cells or lysates may run through a third protein. Some results given as binding are weak or reduced against the parent protein; the word gives no strength.

Chains of the proteins cited; added tags and fusions are not shown. Lines headed by an entry give the natural chain unless they say otherwise; changes in a name come on top.
UniProt Q9UKT9: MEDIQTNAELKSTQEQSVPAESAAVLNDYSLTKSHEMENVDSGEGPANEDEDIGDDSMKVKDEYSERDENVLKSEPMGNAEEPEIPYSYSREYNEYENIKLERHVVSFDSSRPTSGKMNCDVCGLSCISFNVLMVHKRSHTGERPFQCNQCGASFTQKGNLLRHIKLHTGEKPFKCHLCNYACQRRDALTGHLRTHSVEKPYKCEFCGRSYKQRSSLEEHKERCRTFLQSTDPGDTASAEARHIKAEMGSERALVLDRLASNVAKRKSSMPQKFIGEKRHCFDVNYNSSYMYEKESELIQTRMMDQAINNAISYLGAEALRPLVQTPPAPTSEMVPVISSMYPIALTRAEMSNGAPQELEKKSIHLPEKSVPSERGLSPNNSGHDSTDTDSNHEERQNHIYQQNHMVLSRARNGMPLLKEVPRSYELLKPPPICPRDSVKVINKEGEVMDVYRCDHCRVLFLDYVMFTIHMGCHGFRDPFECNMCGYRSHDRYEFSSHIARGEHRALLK
UniProt Q96SW2: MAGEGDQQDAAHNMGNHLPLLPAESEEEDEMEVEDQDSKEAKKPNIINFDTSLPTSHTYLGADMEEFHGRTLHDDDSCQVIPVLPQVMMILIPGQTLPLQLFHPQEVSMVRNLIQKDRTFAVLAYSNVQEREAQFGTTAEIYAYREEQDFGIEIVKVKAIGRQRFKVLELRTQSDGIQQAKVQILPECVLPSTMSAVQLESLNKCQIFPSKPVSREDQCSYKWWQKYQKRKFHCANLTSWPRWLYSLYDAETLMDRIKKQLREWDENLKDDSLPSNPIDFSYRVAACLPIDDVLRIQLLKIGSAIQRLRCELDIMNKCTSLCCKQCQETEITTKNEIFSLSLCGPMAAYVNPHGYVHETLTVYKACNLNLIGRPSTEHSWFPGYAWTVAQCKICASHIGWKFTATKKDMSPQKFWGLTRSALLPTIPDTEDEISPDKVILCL

Key:
[1] = target: HA-IKZF3 (human) (UniProt Q9UKT9); assay: anti-FLAG immunoprecipitation from 293T cells (legend of FIG. 9B)
[2] = target: HA-IKZF3 (human) (UniProt Q9UKT9); assay: anti-FLAG immunoprecipitation from co-transfected 293T cells; lenalidomide added to the lysate
[3] = target: Aiolos (IKZF3) (human) (UniProt Q9UKT9); assay: co-immunoprecipitation with HA-CRBN, western blot, with and without lenalidomide
[4] = target: FLAG-IKZF3 (wildtype) (human) (UniProt Q9UKT9); assay: HA immunoprecipitation from transfected 293T cells, 1 µM lenalidomide for 1 hour (legend of FIG. 11C)
[5] = target: FLAG-IKZF3 (wildtype) (human) (UniProt Q9UKT9); assay: co-immunoprecipitation of FLAG-IKZF3 by HA-CRBN from 293T cells, 1 µM lenalidomide
[6] = target: Aiolos (IKZF3) (human) (UniProt Q9UKT9); assay: HA-CRBN immunoprecipitation from MM1S lysate, SILAC quantitative MS, 1 µM lenalidomide
[7] = target: T1, casein kinase 1A1 (CSNK1A1) (human) (UniProt P48729); assay: co-immunoprecipitation from 293T cells, western blot
T1 sequence: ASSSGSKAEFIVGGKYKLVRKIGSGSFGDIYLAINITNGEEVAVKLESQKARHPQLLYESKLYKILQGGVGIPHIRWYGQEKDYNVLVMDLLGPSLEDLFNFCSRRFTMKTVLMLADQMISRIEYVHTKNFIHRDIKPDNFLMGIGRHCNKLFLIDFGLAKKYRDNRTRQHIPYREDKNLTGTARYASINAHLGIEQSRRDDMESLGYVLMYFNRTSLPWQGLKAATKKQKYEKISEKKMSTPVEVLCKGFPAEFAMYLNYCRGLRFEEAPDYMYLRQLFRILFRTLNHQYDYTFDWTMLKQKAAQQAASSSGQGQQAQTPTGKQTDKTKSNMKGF

Measured: binding

FLAG-CRBN (FLAG-tagged human CRBN) (from UniProt Q96SW2 1-442)
binds: [1] | [2]

HA-CRBN (hemagglutinin (HA)-tagged human CRBN) (from UniProt Q96SW2 1-442)
not listed: [1] | [2]
binds: all other assays above
